Data: PMC3328448
These are yes or no findings as the source states them, for the method shown. For some assays here: Binding seen in cells or lysates may run through a third protein. Some results given as binding are weak or reduced against the parent protein; the word gives no strength. For some assays here: Where a sequence is shown, tags or fusion partners need not be part of it.

By UniProt entry, the sequences of proteins in these tests, tags left out.
UniProt Q9SXZ2: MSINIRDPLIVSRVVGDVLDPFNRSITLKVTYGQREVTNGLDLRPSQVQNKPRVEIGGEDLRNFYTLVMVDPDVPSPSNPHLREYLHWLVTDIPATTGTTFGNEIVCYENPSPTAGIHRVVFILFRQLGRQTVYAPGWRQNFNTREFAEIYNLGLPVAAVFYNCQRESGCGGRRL

What was measured:
[1] = biological target: BD-FT (FLOWERING LOCUS T fused to the Gal4 DNA-binding domain) (Arabidopsis) (UniProt Q9SXZ2); assay: two-hybrid; BD-FT co-transformed with FTIP1 versions in pGADT7; growth on SD-His/-Trp/-Leu with 30 mM 3-amino-1,2,4-triazole; beta-galactosidase assays
GST-FT (Arabidopsis) = GST-FT (Arabidopsis) (UniProt Q9SXZ2); assay: pull-down; GST-FT immobilized on glutathione sepharose beads, incubated with in vitro translated myc-FTIP1(N501); detected with anti-myc antibody; only the target purified

| binding [1] | binding (GST-FT (Arabidopsis)) | Binder |
| --- | --- | --- |
| binds | – | FTIP1 (N501) in pGADT7 (domain or fragment, UniProt Q9FL59 1-501) MAAKDGAKSQEDYKLKDMKPELGERWPHGGQRGGTGWIGSERAASTYDLVEQMFYLYVRVVKAKDLPPNPVTSNCDPYVEVKIGNYKGKTKHFEKRTNPEWNQVFAFSKDKVQSSTVEVFVRDKEMVTRDEYIGKVVFDMREVPTRVPPDSPLAPQWYRLEDRRGESKKRGEVMVAVWLGTQADEAFPDAWHSDASSVQGEGVQSVRSKVYVSPKLWYLRVNVIEAQDVEPSDRSQPPQAFVKVQVGNQILKTKLCPNKTTNPMWNEDLVFVAAEPFEEQFFLTVENKVTPAKDEVMGRLISPLSVFEKRLDHRAVHSKWYNLEKFGFGALEGDKRHELKFSSRIHLRVCLEGGYHVMDESTLYISDVKPTARQLWKSPIGILEVGILSAQGLSPMKTKDGKATTDPYCVAKYGQKWVRTRTIIDSSSPKWNEQYTWEVYDPCTVITLGVFDNCHLGGSEKSNSGAKVDSRIGKVRIRLSTLEADRIYTHSYPLLVLQTKG |
| – | binds | myc-FTIP1(N501) (domain or fragment, UniProt Q9FL59 1-501) MAAKDGAKSQEDYKLKDMKPELGERWPHGGQRGGTGWIGSERAASTYDLVEQMFYLYVRVVKAKDLPPNPVTSNCDPYVEVKIGNYKGKTKHFEKRTNPEWNQVFAFSKDKVQSSTVEVFVRDKEMVTRDEYIGKVVFDMREVPTRVPPDSPLAPQWYRLEDRRGESKKRGEVMVAVWLGTQADEAFPDAWHSDASSVQGEGVQSVRSKVYVSPKLWYLRVNVIEAQDVEPSDRSQPPQAFVKVQVGNQILKTKLCPNKTTNPMWNEDLVFVAAEPFEEQFFLTVENKVTPAKDEVMGRLISPLSVFEKRLDHRAVHSKWYNLEKFGFGALEGDKRHELKFSSRIHLRVCLEGGYHVMDESTLYISDVKPTARQLWKSPIGILEVGILSAQGLSPMKTKDGKATTDPYCVAKYGQKWVRTRTIIDSSSPKWNEQYTWEVYDPCTVITLGVFDNCHLGGSEKSNSGAKVDSRIGKVRIRLSTLEADRIYTHSYPLLVLQTKG |
